The results in this text go back to paper PMC7601328.

Construct, isoform or probe ends are uncertain for at least one entry. A weaker result is weaker than the reference pair of the same experiment.

This series concerns RNA polymerase holoenzyme (beta, beta', alpha, omega, sigma) (Escherichia coli). Briefly: EMSA. The settings on record: 500 uM ppGpp, 50 uM ATP, 10 mM Mg acetate, heparin stop, 40 mM Hepes-KOH pH 8, 50 mM KCl, 0.5 mM DTT, 0.005% NP40, 50 uM ATP, 30 C, ~0.3 pmol DNA and 7 pmol RNAP in 200 uL, time course, native protein, label: 5'-32P on the Gen406 strand, probe letters rebuilt from the primers and the genome.

Regarding “GTGCTGCGAAATCATCGGTGTAAATAGGGCTATATGCCGCGTCTTTTCTGGCTAATTTTATGAAAAGATATTTATTGGCGGCACAAAATAAAGAACAATTTTGAATTCCTTACATTCCTGGCTATTGCACAACTGAATTTAAGGCTCTATTATTACCTCAACAAACCACCCCAATATAAGTTTGAGATTACTACAATGAGCGAAGCACTTAAAATTCTGAA (double strand) [hns promoter fragment, 221 bp (-159 to +62)]”, the binding result is “binds more weakly”.
